Measured values: patent publication US20140024555A1 (LOS ALAMOS NATIONAL SECURITY, published 2014)
These are yes or no findings as the source states them, for the method shown. Some binding calls cover weakened binding; strength is not graded here. Tags and fused reporters may be left off the sequences shown.

What was measured:
[1] = target: T1, YheL subunit of the E. coli YheNML / YheML constructs, with C-terminal GFP S11 tag (Escherichia coli) (UniProt P45530); assay: colony filtration immobilized bead assay: 6-His subunit captured on Talon resin in agarose, co-captured GFP S11 subunit read by complemented GFP fluorescence; untagged YheM co-expressed
T1 sequence: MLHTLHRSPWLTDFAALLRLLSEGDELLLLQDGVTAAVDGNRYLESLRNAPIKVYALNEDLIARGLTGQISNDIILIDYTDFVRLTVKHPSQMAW

[2] = target: T1, YheL subunit of the E. coli YheNML / YheML constructs, with C-terminal GFP S11 tag (Escherichia coli); assay: mock library of YheNML and YheML colonies, Talon capture plate, identity of picks by PCR (FIG. 11); untagged YheM co-expressed
[3] = target: T1, YheL subunit of the E. coli YheNML / YheML constructs, with C-terminal GFP S11 tag (Escherichia coli); assay: mock library of YheNML and YheML colonies (1:25), Talon capture plate; compact spots picked and identified by PCR; untagged YheM co-expressed
[4] = target: T1, YheL subunit of the E. coli YheNML / YheML constructs, with C-terminal GFP S11 tag (Escherichia coli); assay: mock library of YheNML in 25-fold excess of YheML colonies, Talon capture plate (FIG. 2C); untagged YheM co-expressed
[5] = target: T1, YheL subunit of the E. coli YheNML / YheML constructs, with C-terminal GFP S11 tag (Escherichia coli); assay: colony filtration immobilized bead assay, capture plate with TNG buffer (FIG. 4B); untagged YheM co-expressed
[6] = target: T1, YheL subunit of the E. coli YheNML / YheML constructs, with C-terminal GFP S11 tag (Escherichia coli); assay: colony filtration immobilized bead assay, capture plates with TNG buffer (FIG. 4B); complex 1; untagged YheM co-expressed

Measured: binding

B1: YheN subunit of the E. coli YheNML complex, with N-terminal 6-His tag (protein)
chain: MRFAIVVTGPAYGTQQASSAFQFAQALIADGHELSSVFFYREGVYNANQLTSPASDEFDLVRAWQQLNAQHGVALNICVAAALRRGVVDETEAGRLGLASSNLQQGFTLSGLGALAEASLTCDRVVQF
binds: [1] | [2] | [3] | [4] | [5] | [6]
